{"source": "PubChem BioAssay AID1053208 | Peter MacCallum Cancer Centre | 2014", "assay": "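Find knock-downs that sensitise mouse osteosarcoma cells to doxorubicin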 (primary screen)", "cell system": "mouse osteosarcoma cells, early-passage culture from an engineered mouse model of fibroblastic bone tumour", "reagent": "siRNA pool against mouse genes, 40 nM", "time to read-out": "about 120 h (48 h before drug, then 72 h with drug)", "conditions": "doxorubicin 100 nM for 72 h, roughly 30-40% inhibitory dose", "read-out": "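Luminescent ATP signal taken as viability with or without 100 nM doxorubicin for 72 h; mean of two wells set against non-targeting siRNA and turned into robust z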", "scale": "viability z-score with doxorubicin: higher = more viable cells under doxorubicin; viability z-score without drug: higher = more viable cells with knock-down alone", "active means": "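a pool counts as active when its viability z-score with doxorubicin is -2 or below and its z-score without drug lies between -2 and 2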", "note": "This is a random part of about 17,000 reagents tested. 788 of them (4.7%) count as active. 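Calls rest on z-score classes alone; an extra cut-off of viability at most 70% of control was not applied to them.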 Further read-outs or replicates are left out here. Reagent sequences are not shown."}
{"gene symbol":"Nfkbil1","combined z-score class":"no change with or without drug","viability z-score with doxorubicin":0.9,"viability z-score without drug":0.51,"outcome":"inactive"}
{"gene symbol":"Slc2a2","combined z-score class":"no change with or without drug","viability z-score with doxorubicin":-0.22,"viability z-score without drug":0,"outcome":"inactive"}
{"gene symbol":"Nipsnap1 (nipsnap homolog 1)","combined z-score class":"high cell count with doxorubicin only","viability z-score with doxorubicin":2.92,"viability z-score without drug":0.17,"outcome":"inactive"}
{"gene symbol":"Ddx18 (DEAD box helicase 18)","combined z-score class":"low cell count without drug only","viability z-score with doxorubicin":-0.45,"viability z-score without drug":-2.19,"outcome":"inactive"}
{"gene symbol":"Dkk2 (dickkopf WNT signaling pathway inhibitor 2)","combined z-score class":"no change with or without drug","viability z-score with doxorubicin":-0.45,"viability z-score without drug":1.01,"outcome":"inactive"}
{"gene symbol":"Gripap1 (GRIP1 associated protein 1)","combined z-score class":"no change with or without drug","viability z-score with doxorubicin":1.91,"viability z-score without drug":1.52,"outcome":"inactive"}
{"gene symbol":"Bpifc (BPI fold containing family C)","combined z-score class":"no change with or without drug","viability z-score with doxorubicin":0,"viability z-score without drug":0,"outcome":"inactive"}
{"gene symbol":"Ccnq (cyclin Q)","combined z-score class":"no change with or without drug","viability z-score with doxorubicin":-1.12,"viability z-score without drug":1.18,"outcome":"inactive"}
{"gene symbol":"Or51m1 (olfactory receptor family 51 subfamily M member 1)","combined z-score class":"no change with or without drug","viability z-score with doxorubicin":0.67,"viability z-score without drug":-0.67,"outcome":"inactive"}
{"gene symbol":"Cdk2ap2 (cyclin dependent kinase 2 associated protein 2)","combined z-score class":"no change with or without drug","viability z-score with doxorubicin":0.79,"viability z-score without drug":0.34,"outcome":"inactive"}
{"gene symbol":"Abcd1 (ATP-binding cassette, sub-family D member 1)","combined z-score class":"no change with or without drug","viability z-score with doxorubicin":-0.22,"viability z-score without drug":-0.17,"outcome":"inactive"}
{"gene symbol":"Nlk (nemo like kinase)","combined z-score class":"no change with or without drug","viability z-score with doxorubicin":0.22,"viability z-score without drug":0.67,"outcome":"inactive"}
{"gene symbol":"Hsfy2 (heat shock transcription factor, Y-linked 2)","combined z-score class":"no change with or without drug","viability z-score with doxorubicin":-1.24,"viability z-score without drug":-0.84,"outcome":"inactive"}
{"gene symbol":"Gtf2h4 (general transcription factor II H, polypeptide 4)","combined z-score class":"no change with or without drug","viability z-score with doxorubicin":-0.67,"viability z-score without drug":-0.51,"outcome":"inactive"}
{"gene symbol":"Lpin1 (lipin 1)","combined z-score class":"high cell count with doxorubicin only","viability z-score with doxorubicin":2.25,"viability z-score without drug":1.69,"outcome":"inactive"}
{"gene symbol":"Elovl6 (ELOVL fatty acid elongase 6)","combined z-score class":"no change with or without drug","viability z-score with doxorubicin":-1.57,"viability z-score without drug":1.85,"outcome":"inactive"}
{"gene symbol":"Mthfr (methylenetetrahydrofolate reductase)","combined z-score class":"no change with or without drug","viability z-score with doxorubicin":-0.79,"viability z-score without drug":-1.69,"outcome":"inactive"}
{"gene symbol":"A730036I17Rik (RIKEN cDNA A730036I17 gene)","combined z-score class":"no change with or without drug","viability z-score with doxorubicin":0.22,"viability z-score without drug":1.18,"outcome":"inactive"}
{"gene symbol":"Or4c52 (olfactory receptor family 4 subfamily C member 52)","combined z-score class":"no change with or without drug","viability z-score with doxorubicin":-0.67,"viability z-score without drug":-0.51,"outcome":"inactive"}
{"gene symbol":"Zbtb18 (zinc finger and BTB domain containing 18)","combined z-score class":"no change with or without drug","viability z-score with doxorubicin":0.34,"viability z-score without drug":0.84,"outcome":"inactive"}
{"gene symbol":"Zfp275 (zinc finger protein 275)","combined z-score class":"high cell count with doxorubicin only","viability z-score with doxorubicin":2.02,"viability z-score without drug":1.69,"outcome":"inactive"}
{"gene symbol":"Dhrs4 (dehydrogenase/reductase 4)","combined z-score class":"no change with or without drug","viability z-score with doxorubicin":0.45,"viability z-score without drug":0.84,"outcome":"inactive"}
{"gene symbol":"CIPP","combined z-score class":"no change with or without drug","viability z-score with doxorubicin":-0.67,"viability z-score without drug":-0.34,"outcome":"inactive"}
{"gene symbol":"KCNK7","combined z-score class":"no change with or without drug","viability z-score with doxorubicin":-1.57,"viability z-score without drug":-1.52,"outcome":"inactive"}
{"gene symbol":"Nploc4 (NPL4 homolog, ubiquitin recognition factor)","combined z-score class":"no change with or without drug","viability z-score with doxorubicin":-0.22,"viability z-score without drug":-0.51,"outcome":"inactive"}
{"gene symbol":"Ddx59 (DEAD box helicase 59)","combined z-score class":"high cell count with doxorubicin only","viability z-score with doxorubicin":2.02,"viability z-score without drug":0.51,"outcome":"inactive"}
{"gene symbol":"Kmt2b (lysine (K)-specific methyltransferase 2B)","combined z-score class":"no change with or without drug","viability z-score with doxorubicin":0.56,"viability z-score without drug":-0.17,"outcome":"inactive"}
{"gene symbol":"Adissp (adipose secreted signaling protein)","combined z-score class":"no change with or without drug","viability z-score with doxorubicin":0,"viability z-score without drug":0.17,"outcome":"inactive"}

2 successive entries already listed:
{"gene symbol":"Kmt2b (lysine (K)-specific methyltransferase 2B)","combined z-score class":"no change with or without drug","viability z-score with doxorubicin":0.56,"viability z-score without drug":-0.17,"outcome":"inactive"}
{"gene symbol":"Adissp (adipose secreted signaling protein)","combined z-score class":"no change with or without drug","viability z-score with doxorubicin":0,"viability z-score without drug":0.17,"outcome":"inactive"}
